Data as given in PubChem BioAssay AID1259264 (Sanger Institute, 2017).
This is one part, drawn at random, of 794 deposited reagents. 15 of all reagents (1.9%) count as active. 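Calls rest on knock-down alone at z-score below -3; synergy scores with the three drugs do not decide them.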 Entries without a mark were called inactive. Viability is capped at 1. Not stated in the record: the amount of reagent, the time to read-out.

Aim: 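Kinases needed for CL40 growth and those that boost anti-cancer drug killing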 (primary screen)
Cell system: CL40 human colorectal cancer cells
Knock-down reagent: siRNA pool against human genes
Challenge: DMSO, or an anchor drug: BYL719 at 1 µM, cetuximab at 5 µg/ml, or trametinib at 10 nM
Detection: 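Replicate-mean viability versus a non-targeting pool, robust z-score from control wells, and mean synergy with BYL719 1 µM, cetuximab 5 µg/ml or trametinib 10 nM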
Direction: robust z-score, siRNA alone and viability, siRNA alone: higher = more viable cells; synergy score with BYL719: higher = stronger combined killing with BYL719; synergy score with cetuximab: higher = stronger combined killing with cetuximab; synergy score with trametinib: higher = stronger combined killing with trametinib
Hit rule: 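a gene counts as essential when knock-down without drug gives a robust z-score below -3, meaning fewer cells; synergy scores play no part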
Meaning of the calls: active = essential (lowers viability alone); inactive = not essential

gene	robust z-score, siRNA alone	viability, siRNA alone (fraction of control)	synergy score with BYL719	synergy score with cetuximab	synergy score with trametinib
DAPK1 (GeneID 1612)	0.539	1	-0.0385	0.0292	0.12
HK1 (GeneID 3098)	0.0498	0.965	-0.125	-0.00119	0.0755
PEAK1 (GeneID 79834)	-0.6	0.918	-0.0995	-0.0736	0.0899
CSNK2A1 (GeneID 1457)	0.539	1	-0.156	-0.0174	0.0105
ELF3 (GeneID 1999)	-1.26	0.871	-0.00511	-0.043	0.124
THNSL1 (GeneID 79896)	0.539	1	-0.0724	-0.0174	0.00309
ACVR1 (GeneID 90)	0.26	0.98	-0.0542	0.00611	0.0447
WNK4 (GeneID 65266)	-1.48	0.855	-0.183	-0.126	-0.0549
FRK (GeneID 2444)	-0.224	0.945	-0.0759	-0.0364	-0.112
RIPK1 (GeneID 8737)	0.539	1	-0.0564	-0.0174	0.026
HSPB8 (GeneID 26353)	0.539	1	-0.109	0.0632	0.0344
CLK2 (GeneID 1196)	0.539	1	-0.0801	0.0118	-0.0038
PAK4 (GeneID 10298)	0.539	1	-0.0492	0	0.0535
JAK3 (GeneID 3718)	0.539	1	-0.151	-0.0174	0.111
NME7 (GeneID 29922)	0.539	1	-0.144	-0.0174	0.032
HIPK3 (GeneID 10114)	-0.358	0.936	-0.0313	0.0307	0.167
CDKL5 (GeneID 6792)	-0.698	0.911	-0.0531	-0.00292	0.168
UHMK1 (GeneID 127933)	0.378	0.988	-0.0817	0.00519	0.108
CDK17 (GeneID 5128)	-1.85	0.829	-0.069	-0.0166	-0.0689
TTBK1 (GeneID 84630)	-0.806	0.904	0.0116	-0.112	0.0733
LATS2 (GeneID 26524)	0.514	0.998	-0.0583	-0.0192	0.0333
PRKAA1 (GeneID 5562)	0.539	1	-0.115	-0.0174	-0.0292
MAP3K12 (GeneID 7786)	0.539	1	-0.137	-0.0174	0.0692
NUAK2 (GeneID 81788)	0.539	1	-0.0216	0.0411	0.0999
TGFBR1 (GeneID 7046)	0.539	1	-0.0626	0.0279	0.0706
MAGI1 (GeneID 9223)	-0.222	0.945	-0.101	-0.071	0.0569
MATK (GeneID 4145)	-0.797	0.904	-0.0747	-0.0641	0.0618
EPHB6 (GeneID 2051)	0.539	1	-0.00145	-0.0174	0.147
MAP2K7 (GeneID 5609)	0.259	0.98	-0.16	-0.0371	0.208
CDK5R2 (GeneID 8941)	0.243	0.979	-0.109	-0.0382	-0.00269
MAP2K5 (GeneID 5607)	0.539	1	-0.0393	-0.0174	0.0449
EPHB3 (GeneID 2049)	0.539	1	-0.0275	-0.0174	0.13
TTBK2 (GeneID 146057)	-1.55	0.851	-0.201	-0.145	0.0179
OBSCN (GeneID 84033)	0.539	1	-0.136	-0.0174	-0.117
RYK (GeneID 6259)	0.0555	0.965	-0.144	-0.0515	0.0435
PIK3R2 (GeneID 5296)	0.269	0.981	-0.172	0.0127	-0.0745
STRADA (GeneID 92335)	0.539	1	-0.047	-0.0174	0.0184
NRAS (GeneID 4893)	0.539	1	-0.156	-0.0174	-0.0953
ZC3H11A (GeneID 9877)	0.539	1	-0.0786	-0.00131	0.136
DCLK3 (GeneID 85443)	0.539	1	-0.115	-0.0174	0.0404
ANKK1 (GeneID 255239)	0.539	1	0.0102	-0.0174	0.0741
TGFBR3 (GeneID 7049)	0.168	0.973	-0.137	-0.00168	0.0119
SPEG (GeneID 10290)	0.539	1	-0.0801	-0.00994	0.0338
BUB1B (GeneID 701)	-2.45	0.786	-0.114	-0.0211	0.0182
NME3 (GeneID 4832)	0.539	1	-0.132	-0.0174	0.0509
ULK3 (GeneID 25989)	-0.111	0.953	-0.0235	-0.00192	0.0399
STK40 (GeneID 83931)	0.539	1	-0.0815	-0.0174	-0.0395
CDK15 (GeneID 65061)	0.508	0.998	-0.108	-0.0196	0.103
WT1 (GeneID 7490)	0.539	1	-0.156	-0.0174	-0.0015
RIPK3 (GeneID 11035)	0.539	1	-0.156	0.0371	-0.00413
NTRK2 (GeneID 4915)	0.539	1	0.0028	-0.0174	0.0822
DCLK1 (GeneID 9201)	0.539	1	-0.00517	-0.0174	0.0392
UCK1 (GeneID 83549)	0.539	1	-0.156	-0.0174	0.0156
ITSN1 (GeneID 6453)	-0.117	0.953	0.0652	0.0412	0.105
PNKP (GeneID 11284)	0.539	1	0.0184	0.081	0.108
TBX3 (GeneID 6926)	0.539	1	-0.156	-0.0174	0.0327
CAMK2B (GeneID 816)	0.539	1	-0.116	-0.0174	0.0975
MAP2K1 (GeneID 5604)	0.159	0.973	-0.103	-0.0172	0.0325
NIM1K (GeneID 167359)	0.539	1	-0.0417	0.0175	0.0788
PIM3 (GeneID 415116)	0.539	1	-0.103	-0.0174	0.113
MAP3K6 (GeneID 9064)	0.539	1	0.0213	-0.0174	0.0112
SRPK3 (GeneID 26576)	-0.382	0.934	-0.197	-0.0823	0.0186
ITPKA (GeneID 3706)	0.539	1	-0.106	-0.0174	0.0122

A portion of the results above, as a working copy:
gene	robust z-score, siRNA alone	viability, siRNA alone (fraction of control)	synergy score with BYL719	synergy score with cetuximab	synergy score with trametinib
UCK1 (GeneID 83549)	0.539	1	-0.156	-0.0174	0.0156
ITSN1 (GeneID 6453)	-0.117	0.953	0.0652	0.0412	0.105
PNKP (GeneID 11284)	0.539	1	0.0184	0.081	0.108
TBX3 (GeneID 6926)	0.539	1	-0.156	-0.0174	0.0327
CAMK2B (GeneID 816)	0.539	1	-0.116	-0.0174	0.0975
MAP2K1 (GeneID 5604)	0.159	0.973	-0.103	-0.0172	0.0325
NIM1K (GeneID 167359)	0.539	1	-0.0417	0.0175	0.0788
PIM3 (GeneID 415116)	0.539	1	-0.103	-0.0174	0.113
MAP3K6 (GeneID 9064)	0.539	1	0.0213	-0.0174	0.0112
